Measured values published in US9521848B2, “Tetrazolinone compound and use therefor” (Sumitomo Chemical Company, Limited, priority 2013, dated 2016).
Some results were stated once for a whole list of compounds, not compound by compound.

Legend:
Assay type in all cases: in vivo
[1] = tested on: cucumber anthracnose fungus (Colletotrichum lagenarium); assay: Cucumber anthracnose control test, foliar spray before inoculation (Test Example 18); conditions: 200 ppm foliar spray; cucumber (SAGAMI HANJIRO); inoculated 1 day after spraying
[2] = tested on: cucumber powdery mildew fungus (Sphaerotheca fuliginea); assay: Cucumber powdery mildew control test, foliar spray before inoculation (Test Examples 12, 13); conditions: cucumber (SAGAMI HANJIRO), 8 days after inoculation
[3] = tested on: wheat leaf blotch fungus (Septoria tritici); assay: Wheat leaf blotch control test, foliar spray after inoculation (Test Example 11); conditions: 200 ppm foliar spray 3 days after inoculation; wheat (APOGEE)
[4] = tested on: barley net blotch fungus (Pyrenophora teres); assay: Barley net blotch control test, foliar spray before inoculation (Test Examples 5, 6); conditions: barley (MIKAMO GOLDEN), inoculated 2 days after spraying
[5] = tested on: kidney bean stem rot fungus (Sclerotinia sclerotiorum); assay: Kidney bean stem rot control test, foliar spray before inoculation (Test Examples 7, 8); conditions: kidney bean (NAGAUZURA SAITOU), 4 days after inoculation
[6] = tested on: wheat leaf blotch fungus (Septoria tritici); assay: Wheat leaf blotch control test, foliar spray 4 days before inoculation (Test Examples 9, 10); conditions: wheat (APOGEE), inoculated 4 days after spraying
[7] = tested on: barley leaf blotch fungus (Rhynchosporium secalis); assay: Barley leaf blotch control test, foliar spray before inoculation (Test Example 15); conditions: 200 ppm foliar spray; barley (MIKAMO GOLDEN); inoculated 2 days after spraying
[8] = tested on: soybean rust fungus (Phakopsora pachyrhizi); assay: Soybean rust control test, foliar spray before inoculation (Test Example 14); conditions: 200 ppm foliar spray; soybean (KUROSENGOKU); inoculated 2 days after spraying
[9] = tested on: cucumber target leaf spot fungus (Corynespora cassiicola); assay: Cucumber target leaf spot control test, foliar spray before inoculation (Test Example 17); conditions: 200 ppm foliar spray; cucumber (SAGAMI HANJIRO); inoculated 1 day after spraying

Measured: area of lesion spots on the treated plant relative to that on an untreated plant

Cc1cccc(-n2nnn(C)c2=O)c1COc1ccc(-c2ccc(C#N)cc2)c(C)n1 [Present Compound 4]
≤ 30%: [1] | [2]; 200 ppm foliar spray | [2]; 500 ppm foliar spray | [3] | [4]; 200 ppm foliar spray | [4]; 500 ppm foliar spray | [5]; 200 ppm foliar spray | [5]; 500 ppm foliar spray | [6]; 200 ppm foliar spray | [6]; 500 ppm foliar spray | [7] | [8]

Cc1cc(-c2ccccc2)cnc1OCc1c(C)cccc1-n1nnn(C)c1=O [Present Compound 18, 1-[2-(5-phenyl-3-methyl-pyridin-2-yloxymethyl)-3-methylphenyl]-4-methyl-1,4-dihydrotetrazol-5-one]
≤ 30%: [1] | [9] | [2]; 200 ppm foliar spray | [2]; 500 ppm foliar spray | [4]; 200 ppm foliar spray | [4]; 500 ppm foliar spray | [5]; 200 ppm foliar spray | [5]; 500 ppm foliar spray | [6]; 200 ppm foliar spray | [6]; 500 ppm foliar spray | [7]

Cc1ccccc1-c1cnc(OCc2c(C)cccc2-n2nnn(C)c2=O)c(C)c1 [Present Compound 19]
≤ 30%: [1] | [9] | [2]; 200 ppm foliar spray | [2]; 500 ppm foliar spray | [3] | [4]; 200 ppm foliar spray | [4]; 500 ppm foliar spray | [5]; 200 ppm foliar spray | [5]; 500 ppm foliar spray | [6]; 200 ppm foliar spray | [6]; 500 ppm foliar spray | [7] | [8]

Cc1cccc(-c2cnc(OCc3c(C)cccc3-n3nnn(C)c3=O)c(C)c2)c1 [Present Compound 20]
≤ 30%: [1] | [9] | [2]; 200 ppm foliar spray | [2]; 500 ppm foliar spray | [3] | [4]; 200 ppm foliar spray | [4]; 500 ppm foliar spray | [5]; 200 ppm foliar spray | [5]; 500 ppm foliar spray | [6]; 200 ppm foliar spray | [6]; 500 ppm foliar spray | [7] | [8]

Cc1ccc(-c2cnc(OCc3c(C)cccc3-n3nnn(C)c3=O)c(C)c2)cc1 [Present Compound 21]
≤ 30%: [1] | [9] | [2]; 200 ppm foliar spray | [2]; 500 ppm foliar spray | [3] | [4]; 200 ppm foliar spray | [4]; 500 ppm foliar spray | [5]; 200 ppm foliar spray | [5]; 500 ppm foliar spray | [6]; 200 ppm foliar spray | [6]; 500 ppm foliar spray | [7] | [8]

Cc1cc(-c2cccnc2)cnc1OCc1c(C)cccc1-n1nnn(C)c1=O [Present Compound 23]
≤ 30%: [1] | [9] | [2]; 500 ppm foliar spray | [3] | [4]; 200 ppm foliar spray | [4]; 500 ppm foliar spray | [5]; 200 ppm foliar spray | [5]; 500 ppm foliar spray | [6]; 200 ppm foliar spray | [6]; 500 ppm foliar spray | [7] | [8]

Cc1cccc(-c2cnc(OCc3c(C)cccc3-n3nnn(C)c3=O)c(C)c2)n1 [Present Compound 26, 1-{2-[5-(6-methylpyridin-2-yl)-3-methylpyridin-2-yloxymethyl]-3-methylphenyl}-4-methyl-1,4-dihydro-tetrazol-5-one]
≤ 30%: [1] | [9] | [2]; 200 ppm foliar spray | [2]; 500 ppm foliar spray | [3] | [4]; 200 ppm foliar spray | [4]; 500 ppm foliar spray | [5]; 200 ppm foliar spray | [5]; 500 ppm foliar spray | [6]; 200 ppm foliar spray | [6]; 500 ppm foliar spray | [7] | [8]
